Results deposited as PubChem BioAssay AID504804 (Drosophila RNAi Screening Center, 2011)

- Assay: 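Fly genes whose loss lessens doxorubicin-driven cell death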 (primary screen)
- System: Drosophila Kc cells
- Reagents: long dsRNA against Drosophila genes, 0.5 µg dsRNA per well
- Timing: 96 h (48 h knock-down, then 48 h drug)
- Challenge: doxorubicin 5 µg/ml for 48 h, added 48 h after dsRNA
- Read-out: 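Viability measured as cellular ATP by luminescence after 48 h knock-down then 48 h doxorubicin at 5 µg/ml; unnormalised plate counts for each replicate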
- Scale: raw ATP luminescence: higher = more viable cells, protection from doxorubicin
- Call rule: 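z-score of 2 or more over plate mean in both duplicates, retained only when retests and separate dsRNAs confirm the protection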
In all, the deposit lists about 19,000 reagents; this is an unselected part of those that have a named target and a result. Over the whole deposit, 47 (0.25%) were called active. 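Signals are raw, not normalised; exact z-scores behind calls not deposited; actives needed confirmation, so some wells reaching 2 SD are inactive.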 Names joined by + are all predicted targets of the reagent.

gene,dsRNA,"raw ATP luminescence, replicate 1","raw ATP luminescence, replicate 2",Outcome
orion,DRSC18213,35360,46580,inactive
orion,DRSC18214,29400,38290,inactive
CG11106,DRSC19381,3.50e5,3.53e5,inactive
Ssl2 (Strictosidine synthase-like 2),DRSC14395,64360,49690,inactive
esc (extra sexcombs),DRSC03529,96387,75830,inactive
CG17211,DRSC02587,65247,71883,inactive
Klp67A (Kinesin-like protein at 67A),DRSC11205,75477,63153,inactive
Acyp (Acylphosphatase),DRSC01861,65500,73053,inactive
CG34267,DRSC07881,1.92e5,1.59e5,inactive
side (sidestep),DRSC14523,57330,62690,inactive
side (sidestep),DRSC14716,58260,47820,inactive
side (sidestep),DRSC14717,63660,54350,inactive
side (sidestep),DRSC14718,59540,68890,inactive
side (sidestep),DRSC14721,69090,52620,inactive
Las (Lipoic acid synthase),DRSC11772,25043,24723,inactive
HIPP1 (HP1 and insulator partner protein 1),DRSC11748,20393,11917,inactive
Ser (Serrate),DRSC16856,58540,32850,inactive
pr (purple),DRSC03596,1.26e5,85637,inactive
CG14572,DRSC11733,65657,75157,inactive
CG14286,DRSC14767,43220,47840,inactive
lncRNA:bxd (bithoraxoid),DRSC13176,2.27e5,2.03e5,inactive
Abp1 (Actin binding protein 1),DRSC09693,69747,53577,inactive
CG3213,DRSC00576,19613,26680,inactive
CG11714,DRSC09857,32507,41147,inactive
Lip2 (Lipase 2),DRSC02577,33697,56740,inactive
Lip2 (Lipase 2),DRSC02578,33127,68960,inactive
CG12567,DRSC20845,3.60e5,2.71e5,inactive
"Polr2K (RNA polymerase II, I and III subunit K)",DRSC05535,91833,90503,inactive
Prosbeta1 (Proteasome beta1 subunit),DRSC07159,24570,32923,inactive
spri (sprint),DRSC17846,2.10e5,2.34e5,inactive
spri (sprint),DRSC17984,3.75e5,3.12e5,inactive
spri (sprint),DRSC17985,3.74e5,3.61e5,inactive
spri (sprint),DRSC17986,3.69e5,3.34e5,inactive
spri (sprint),DRSC17988,3.00e5,2.68e5,inactive
spri (sprint),DRSC17989,2.82e5,2.60e5,inactive
kuz (kuzbanian),DRSC03555,54793,60863,inactive

The list goes on, starting with the last 7 of the part before.
gene,dsRNA,"raw ATP luminescence, replicate 1","raw ATP luminescence, replicate 2",Outcome
spri (sprint),DRSC17846,2.10e5,2.34e5,inactive
spri (sprint),DRSC17984,3.75e5,3.12e5,inactive
spri (sprint),DRSC17985,3.74e5,3.61e5,inactive
spri (sprint),DRSC17986,3.69e5,3.34e5,inactive
spri (sprint),DRSC17988,3.00e5,2.68e5,inactive
spri (sprint),DRSC17989,2.82e5,2.60e5,inactive
kuz (kuzbanian),DRSC03555,54793,60863,inactive
CG7369,DRSC11822,48477,29033,inactive
CG15577,DRSC18065,46930,43910,inactive
CG12640,DRSC17847,3.93e5,3.89e5,inactive
CG15731,DRSC19698,3.98e5,3.45e5,inactive
Mes2 (Mesoderm-expressed 2),DRSC11593,47500,29743,inactive
Mes2 (Mesoderm-expressed 2),DRSC11632,21143,19037,inactive
CG34175,DRSC00424,27277,29853,inactive
CG17271,DRSC15210,68260,63130,inactive
l(3)05822 (lethal (3) 05822),DRSC16202,46780,48127,inactive
Setx (Senataxin),DRSC10859,71860,84517,inactive
CG31076,DRSC16017,52740,50700,inactive
ouib (ouija board),DRSC14376,52870,59893,inactive
Mfap1 (Microfibril-associated protein 1),DRSC08154,48967,59763,inactive
CG9752,DRSC04562,51127,63283,inactive
CG17600,DRSC20638,3.96e5,3.53e5,inactive
CG17600,DRSC20640,3.44e5,2.94e5,inactive
Tsp42Ea (Tetraspanin 42Ea),DRSC04982,40517,79820,inactive
Tsp42Ea (Tetraspanin 42Ea),DRSC06792,49147,89480,inactive
RpL26 (Ribosomal protein L26),DRSC10726,49633,41480,inactive
Sec16 (Secretory 16),DRSC19788,2.86e5,2.83e5,inactive
Sec16 (Secretory 16),DRSC19858,3.58e5,3.27e5,inactive
maca,DRSC15738,73830,62590,inactive
Nuak (Nuak family kinase),DRSC14414,49883,56377,inactive
Nuak (Nuak family kinase),DRSC14415,52203,20503,inactive
Nuak (Nuak family kinase),DRSC14416,53967,70323,inactive
"E(spl)mgamma-HLH (Enhancer of split mgamma, helix-loop-helix)",DRSC16699,1.05e5,87820,inactive
Lsp1beta (Larval serum protein 1 beta),DRSC00757,1.11e5,75127,inactive
HBS1,DRSC08544,99737,79970,inactive
wfs1 (wolfram syndrome 1),DRSC15676,54660,68770,inactive
Fancl,DRSC14550,63117,59643,inactive
trol (terribly reduced optic lobes),DRSC17714,1.64e5,1.74e5,inactive
trol (terribly reduced optic lobes),DRSC17718,3.44e5,3.01e5,inactive
trol (terribly reduced optic lobes),DRSC18613,42000,41800,inactive
trol (terribly reduced optic lobes),DRSC18814,35790,50340,inactive
Diedel3 (Diedel 3),DRSC19544,3.64e5,3.12e5,inactive
140up (upstream of RpII140),DRSC12634,47960,27113,inactive
Met75Ca + Met75Cb,DRSC09549,92173,92183,inactive
Met75Ca + Met75Cb,DRSC11221,36800,33500,inactive
RagA-B (Ras-related GTP binding A/B),DRSC14450,39363,21997,inactive
CG11353,DRSC08182,34787,32290,inactive
CG10514,DRSC14249,83340,94240,inactive
p130CAS,DRSC07862,1.48e5,30113,inactive
p130CAS,DRSC08257,52297,48817,inactive
CG17568,DRSC02628,76247,78983,inactive
ver (verrocchio),DRSC10125,67930,60850,inactive
Prosalpha6 (Proteasome alpha6 subunit),DRSC03401,34370,47723,inactive
CG31998,DRSC17138,51200,52990,inactive
CG17687,DRSC10279,1.06e5,74743,inactive
